Values from PubChem BioAssay AID1259425 (University of Nebraska Medical Center, 2018)
Screen: 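Find knockdowns that reproduce the gene expression pattern seen when KSR1 is lost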 (primary screen). Cell system: HCT116 human colon cancer cells. Reagents: siRNA pool against human genes, 50 nM siRNA. Measured: 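After 50 nM siRNA pool, branched-DNA assay measures six marker transcripts per well, minus blank, normalised to the geometric mean of two housekeeping transcripts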. Scale: BNIP3L mRNA: higher = more BNIP3L transcript after knockdown.
The whole screen tested about 14,000 reagents; below is an unselected part. Not all columns of the deposit are shown. Reagent sequences are not shown. Not given: the time to read-out.

USP37 (ubiquitin specific peptidase 37) scored BNIP3L mRNA, set 1 = 0.105. Silencing of POU6F1 (POU class 6 homeobox 1) came out at: BNIP3L mRNA, set 1 = 0.0669. With knock-down of DNAJC14 (DnaJ heat shock protein family (Hsp40) member C14) the results were BNIP3L mRNA, set 1 = 0.0497. FAM50B (family with sequence similarity 50 member B) gave BNIP3L mRNA, set 1 = 0.0849. For ALPI (alkaline phosphatase, intestinal), the entry reads BNIP3L mRNA, set 1 = 0.0722. With knock-down of FBXL21P (F-box and leucine rich repeat protein 21, pseudogene), the screen gave BNIP3L mRNA, set 1 = 0.0463.

With knock-down of THOC3 (THO complex subunit 3), the record shows BNIP3L mRNA, set 1 = 0.123. For SH3TC2 (SH3 domain and tetratricopeptide repeats 2), the entry reads BNIP3L mRNA, set 1 = 0.139. After knock-down of HMGN1 (high mobility group nucleosome binding domain 1), the screen gave BNIP3L mRNA, set 1 = 0.162. With knock-down of CAT (catalase), the screen gave BNIP3L mRNA, set 1 = 0.0866. Depletion of GPC5 (glypican 5) gave: BNIP3L mRNA, set 1 = 0.0786. CH25H (cholesterol 25-hydroxylase) gave BNIP3L mRNA, set 1 = 0.14.

With knock-down of CSPG4P2Y (CSPG4 pseudogene 2 Y-linked), the record shows BNIP3L mRNA, set 1 = 0.228. Against DVL2 (dishevelled segment polarity protein 2), the values are BNIP3L mRNA, set 1 = 0.0381. RNF123 (ring finger protein 123) scored BNIP3L mRNA, set 1 = 0.163. Depletion of ATRNL1 (attractin like 1) resulted in: BNIP3L mRNA, set 1 = 0.147. CTSZ (cathepsin Z) gave BNIP3L mRNA, set 1 = 0.111. For SCNN1G (sodium channel epithelial 1 subunit gamma), the entry reads BNIP3L mRNA, set 1 = 0.0751.

ZMYND10 (zinc finger MYND-type containing 10) showed BNIP3L mRNA, set 1 = 0.102.

Entries listed so far whose gene name begins with D or d (2):
DNAJC14 (DnaJ heat shock protein family (Hsp40) member C14) → BNIP3L mRNA, set 1: 0.0497
DVL2 (dishevelled segment polarity protein 2) → BNIP3L mRNA, set 1: 0.0381
